Test results: patent US20050221285A1, “Method for identifying or screening anti-viral agents” (priority 2001, published 2005)
At least one structure is not confirmed: it was looked up by name or label, or the drawing left a doubt.

Tested on: RSV Long mut L138I
Type: cell-based, RSV A (Long strain)

NC(=O)c1ncn(C2O[C@H](CO)[C@@H](O)[C@H]2O)n1 (stereo partly drawn) [Ribavirin, 1-D-ribofuranosyl-1H-1,2,4-triazole-3-carboxamide]
EC50: —1897 ng/ml
